Values quoted from earlier work, collected in patent publication US7244845B2, “Process for preparing cyclic N-substituted alpha-imino carboxylic acids” (Sanofi-Aventis Deutschland GmbH, priority 2003, dated 2007).
At least one compound was matched to its structure with a doubt left.

System: B16-BL6 murine melanoma
Details: intraperitoneal administration; lung colonies produced by intravenous injection of B16-BL6 murine melanoma in C57BL/6N mice

CNC(=O)[C@H](Cc1ccccc1)NC(=O)[C@H](CC(C)C)[C@H](CSc1cccs1)C(=O)NO [batimastat]
inhibition in the growth and metastatic spread and number of lung colonies: significant inhibition
